Data published in doi:10.1101/2024.04.24.590854.
No constants are given. Whether binding was seen depends on the method and setting.

Chains of the proteins cited; added tags and fusions are not shown. Lines headed by an entry give the natural chain unless they say otherwise; changes in a name come on top.
UniProt O14980: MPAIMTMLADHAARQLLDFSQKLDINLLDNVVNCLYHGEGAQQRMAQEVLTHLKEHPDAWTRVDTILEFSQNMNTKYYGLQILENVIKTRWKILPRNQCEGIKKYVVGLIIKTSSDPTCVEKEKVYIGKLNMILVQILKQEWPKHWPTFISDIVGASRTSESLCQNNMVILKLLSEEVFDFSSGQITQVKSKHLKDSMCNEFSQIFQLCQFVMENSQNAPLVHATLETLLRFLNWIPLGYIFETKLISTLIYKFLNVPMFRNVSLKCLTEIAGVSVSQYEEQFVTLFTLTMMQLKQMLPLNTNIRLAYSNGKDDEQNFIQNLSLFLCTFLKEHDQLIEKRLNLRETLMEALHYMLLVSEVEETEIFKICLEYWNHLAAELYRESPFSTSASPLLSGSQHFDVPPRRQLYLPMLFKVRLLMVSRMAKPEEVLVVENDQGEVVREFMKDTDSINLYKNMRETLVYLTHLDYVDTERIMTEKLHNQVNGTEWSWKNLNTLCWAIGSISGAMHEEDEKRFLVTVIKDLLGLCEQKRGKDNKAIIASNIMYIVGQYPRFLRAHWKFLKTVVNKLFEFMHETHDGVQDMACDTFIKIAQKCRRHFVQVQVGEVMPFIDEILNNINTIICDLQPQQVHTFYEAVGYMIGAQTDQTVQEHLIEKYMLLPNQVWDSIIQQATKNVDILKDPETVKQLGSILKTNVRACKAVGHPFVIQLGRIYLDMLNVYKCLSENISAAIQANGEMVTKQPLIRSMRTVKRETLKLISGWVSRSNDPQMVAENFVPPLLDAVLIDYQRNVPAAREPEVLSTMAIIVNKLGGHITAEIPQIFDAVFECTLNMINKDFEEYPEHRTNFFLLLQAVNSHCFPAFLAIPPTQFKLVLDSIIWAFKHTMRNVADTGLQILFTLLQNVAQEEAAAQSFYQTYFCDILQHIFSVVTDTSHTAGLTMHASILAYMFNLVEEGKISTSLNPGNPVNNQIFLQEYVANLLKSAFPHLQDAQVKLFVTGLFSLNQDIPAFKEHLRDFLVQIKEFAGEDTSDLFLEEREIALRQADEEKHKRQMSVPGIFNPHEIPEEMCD

Experiments:
[1] = target: T1, BCOR P85L(69-88) peptide (human); assay: fluorescence polarisation
T1 sequence (peptide, 5(6)-carboxyfluorescein on the N-terminus; C-terminal amide): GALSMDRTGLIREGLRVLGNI

[2] = target: T2, ETV6(203-222) wild-type peptide (human); assay: fluorescence polarisation
T2 sequence (peptide, 5(6)-carboxyfluorescein on the N-terminus; C-terminal amide): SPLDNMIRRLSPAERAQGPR

reconstituted XPO1:RanGTP nuclear export receptor complex (from UniProt O14980 1-1071; P32835 1-179)
binding [1]: no binding
binding [2]: no binding
